Reference: patent US20240239907A1
These are yes or no findings as the source states them, for the method shown. Some entries that bind do so weakly or less than the wild type.

Sequences of proteins named here, by UniProt entry; tags and fusion partners are left off. A change or cut given only in a name is not applied to a line headed by its entry.
UniProt O00574: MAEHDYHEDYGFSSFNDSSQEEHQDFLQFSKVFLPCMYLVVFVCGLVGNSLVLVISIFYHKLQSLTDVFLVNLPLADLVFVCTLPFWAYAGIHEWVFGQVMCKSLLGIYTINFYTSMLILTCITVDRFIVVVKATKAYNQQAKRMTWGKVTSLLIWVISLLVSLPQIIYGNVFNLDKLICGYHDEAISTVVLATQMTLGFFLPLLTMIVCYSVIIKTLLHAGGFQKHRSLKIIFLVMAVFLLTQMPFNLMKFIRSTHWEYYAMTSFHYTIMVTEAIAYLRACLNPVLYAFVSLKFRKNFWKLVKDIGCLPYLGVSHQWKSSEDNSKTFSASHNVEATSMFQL

Target: human CXCR6 (human) (UniProt O00574)
Assay: screening on cells overexpressing CXCR6, one single concentration, yes/no

B1: CNGs-2F11 (antibody, V domains shown)
VH: EVQLQQSGPVLVKPGASVRMSCKASGYTFTEYYINWVKQGHGKSLEWIGIFNPYNGNTKYNQNFKGKATLTVDMSSSTAYMELSSLTSEDSAVYYCSRPYSNFGQGTLVTVSA
VL: DVLLTQIPLSLPVSLGDQASISCRSSQSIVHSNGNTYLEWYLQKPGQSPKLLIYKVSNRFSGVPDRFSGSGSGTDFTLKISRVGAEDLGVYYCFQGSHVPFTFGSGTKLEIK
In the case of B1, the binding is reported as “binds”.
